From publication PMC6925144, “A prospective compound screening contest identified broader inhibitors for Sirtuin 1” (Scientific Reports, 2019)
Whole data set: some 3,200 compounds, median “TSA(without NAD+) / Primary screening (TSA) / delta Tm (K)” near -0.07, cut for the highest 2% near 0.37. The list shows a part of the results.

Protein sequences, listed by entry. Tags and fused reporters are not part of them. Residues count along the entry.
UniProt Q96EB6, 2-747 limits assumed: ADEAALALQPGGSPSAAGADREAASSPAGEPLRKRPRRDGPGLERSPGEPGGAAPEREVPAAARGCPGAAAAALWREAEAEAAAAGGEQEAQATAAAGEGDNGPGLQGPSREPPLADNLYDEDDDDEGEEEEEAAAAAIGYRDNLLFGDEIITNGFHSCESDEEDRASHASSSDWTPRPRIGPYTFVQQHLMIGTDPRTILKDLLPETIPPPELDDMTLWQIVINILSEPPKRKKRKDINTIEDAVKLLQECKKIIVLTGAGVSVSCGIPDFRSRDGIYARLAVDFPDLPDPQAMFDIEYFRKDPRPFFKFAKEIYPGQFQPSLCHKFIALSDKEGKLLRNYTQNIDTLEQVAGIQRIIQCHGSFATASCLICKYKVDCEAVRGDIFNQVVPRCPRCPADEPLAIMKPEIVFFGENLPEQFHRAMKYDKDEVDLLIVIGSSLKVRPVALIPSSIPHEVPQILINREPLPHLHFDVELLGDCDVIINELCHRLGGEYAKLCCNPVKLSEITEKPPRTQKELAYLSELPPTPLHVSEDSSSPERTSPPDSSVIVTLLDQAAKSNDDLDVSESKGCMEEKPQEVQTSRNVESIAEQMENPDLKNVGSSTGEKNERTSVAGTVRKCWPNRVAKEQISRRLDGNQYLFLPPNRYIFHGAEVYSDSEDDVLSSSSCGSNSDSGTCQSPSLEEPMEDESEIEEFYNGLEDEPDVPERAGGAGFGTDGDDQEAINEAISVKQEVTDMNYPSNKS

Biological target: NAD-dependent deacetylase Sirtuin 1 (human, UniProt Q96EB6)
Assay: primary screen, delta tm
Set-up: single well (n = 1)
Conditions: 10 µM
Summary of the method: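 Thermal shift of Sirtuin 1 measured without NAD+, compound at 10 µM (n = 1); value is ΔTm, with hits defined as ΔTm > 0.45 K or < −1.5 K. Hits retested at 5, 10, 20 µM (n = 4) and counterscreened on bovine carbonic anhydrase and ABL1 SH2 domain.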

Row | Compound | TSA(without NAD+) / Primary screening (TSA) / delta Tm (K)
1 | Cn1ccc(CC(=O)Nc2nc(-c3cc(C(N)=O)co3)cs2)n1 | -0.18 K
2 | CCOc1ccc(NC(=O)CN(C)Cc2ccc(C(=O)Nc3ccccc3)cc2)cc1OCC | 0.03 K
3 | CC(CNC(=O)C1CCCN1C(=O)c1ccc2c(c1)OCO2)N(C)C (stereo not shown) | -0.12 K
4 | Nc1ncc(Cc2ccc(Br)cc2)s1 | -0.08 K
5 | Cc1ccc(C(=O)C2=C(O)C(=O)N(CCCN3CCOCC3)C2c2cccc(Br)c2)cc1 (stereo not shown) | 0.12 K
6 | CCC(=O)N(c1nnc(SCC(=O)c2ccc(-c3ccccc3)cc2)s1)C1CC1 | 0.13 K
7 | COCc1cc(NCc2cnn(Cc3ccccc3)c2)n2ncnc2n1 | -0.02 K
8 | Cc1ccsc1CN(C)C(=O)CCc1nc2ccccc2n(CCc2ccccc2)c1=O | 0.17 K
9 | CCS(=O)(=O)NC(C)C(=O)O (stereo not shown) | -0.17 K
10 | O=c1[nH]c2sc3c(c2c2nc(-c4ccc(Br)cc4)nn12)CCCCC3 | 0.08 K
11 | CCCn1nnnc1CN1C(=O)NC(Cc2c[nH]c3ccccc23)C1=O (stereo not shown) | -0.28 K
12 | COc1ccc(C)c2c1N(C(=O)c1cccc(-n3cnnn3)c1)CCC2 | 0.07 K
13 | Cc1cc(C)c2c(n1)sc1c(N3CCN(CCO)CC3)ncnc12 | -0.07 K
14 | N#Cc1ccc(NCC2CCN(c3ncnc4ccsc34)C2)nc1 (stereo not shown) | -0.02 K
15 | CS(=O)(=O)c1cccc(C(=O)N(Cc2ccccc2)c2ccccc2)c1 | -0.13 K
16 | ClC1=Nc2c(cnn2-c2ccccc2)CN1 | -0.23 K
17 | Cc1cc(N(C)C)n2nc(C(F)(F)F)c(-c3ccccc3)c2n1 | -0.18 K
18 | O=C(O)c1cccc(CNC(=O)c2ccc3[nH]ccc3c2)c1 | -0.15 K
19 | O=C(NCc1ccc(-n2cnc3ccccc32)nc1)c1ccc2[nH]cnc2c1 | -0.02 K
20 | Cc1ccc(C23CC4CC(CC(C(=O)N5CCN(S(=O)(=O)Cc6ccccc6)CC5)(C4)C2)C3)cc1 | -0.02 K
21 | CCc1ccc(CN(C)C(=O)c2cc(C)nc3ccccc23)cc1 | -0.01 K
22 | Nc1nc(-c2ccc[nH]2)cs1 | -0.11 K
23 | O=C(c1cnc2ccc3[nH]ncc3c2c1)c1ccccc1O | -0.13 K

Row | Compound | TSA(without NAD+) / Primary screening (TSA) / delta Tm (K)
24 | COc1cc(CN(C)C(=O)COc2ccc3ccc(=O)oc3c2)ccc1OCc1ccccc1 | 0.06 K
25 | Cc1sc2nc(CN3CCCC3)nc(N3CCC(C(N)=O)CC3)c2c1C | -0.12 K
26 | O=C1NC(=S)NC(=O)C1=Cc1c2oc(-c3ccccc3)cc(-c3ccccc3)c-2c2ccccc12 | -0.14 K
27 | COC(=O)c1c(N2C(=O)C=CC2=O)sc2c1CCCC2 | -0.22 K
28 | COc1ccc(S(=O)(=O)N2CCc3ccccc32)cc1C(=O)Nc1cccc(S(=O)(=O)NCc2ccco2)c1 | 0.22 K
29 | Cc1ccc(-c2cc(C(=O)OC(C)C(=O)Nc3cccc([N+](=O)[O-])c3)[nH]n2)cc1 (stereo not shown) | 0.12 K
30 | CCC(CNc1nc(-c2ccncc2)nc2ccccc12)N1CCCC1 (stereo not shown) | 0.05 K
31 | O=C(CC12CC3CC(CC(O)(C3)C1)C2)N1CC=C(c2ccc(O)cc2)CC1 | -0.05 K
32 | NNC(=O)CCN1CCCCCC1 | -0.04 K
33 | COc1cc(C#N)cc(OC)c1OC | -0.11 K
34 | O=c1oc2cc(O)ccc2cc1-c1csc(-c2cc3c(ccc4ccccc43)oc2=O)n1 | 0.15 K
35 | O=C(CSc1ccccc1C(=O)Nc1ccccc1N1CCOCC1)NC12CC3CC(CC(C3)C1)C2 | -0.18 K
36 | CCOc1ccc(C2C(C(=O)c3ccc(Cl)cc3)=C(O)C(=O)N2CCCN2CCOCC2)cc1 (stereo not shown) | 0.13 K
37 | O=C(COC(=O)c1cccc(S(=O)(=O)NCc2ccccc2)c1)NC12CC3CC(CC(C3)C1)C2 | -0.18 K
38 | Cn1cc(C(=O)O)c(-c2cccnc2)n1 | 0.17 K
39 | NC(=O)C1NCCc2c(N)cccc21 (stereo not shown) | -0.23 K
40 | CCOc1cccc(C2C(C(=O)c3sc(C)nc3C)=C(O)C(=O)N2CCCN2CCOCC2)c1 (stereo not shown) | 0.06 K
41 | CN(c1ccccc1)S(=O)(=O)c1cccc(NC(=O)COc2ccc3oc4ccccc4c3c2)c1 | -0.04 K
42 | COc1ccc(N(C)S(=O)(=O)c2cccc(C(=O)N(C)CCOc3ccc(F)cc3)c2)cc1 | -0.08 K
43 | Cc1cccc(N(Cc2ccccc2)C(=O)COC(=O)C23CC4CC(CC(O)(C4)C2)C3)c1 | -0.08 K
44 | Cn1c(-c2ccccc2)cc2ccccc21 | -0.08 K
45 | COc1cccc(C2C(C(=O)c3ccc(Cl)cc3)=C(O)C(=O)N2CCCN2CCOCC2)c1 (stereo not shown) | -0.12 K
46 | CC(C)C(CNc1ccc2nnnn2n1)N1CCc2ccccc2C1 (stereo not shown) | 0.02 K

Exported in CSV form: two of the compounds above
Row,Compound,TSA(without NAD+) / Primary screening (TSA) / delta Tm (K)
25,Cc1sc2nc(CN3CCCC3)nc(N3CCC(C(N)=O)CC3)c2c1C,-0.12 K
26,O=C1NC(=S)NC(=O)C1=Cc1c2oc(-c3ccccc3)cc(-c3ccccc3)c-2c2ccccc12,-0.14 K
